Measured values as given in publication PMC4636238.
Results are given in words; binding and its absence hold for the method and conditions named. Some binding calls cover weakened binding; strength is not graded here. Tags and fused reporters may be left off the sequences shown.

Target: T1, salivary amylase (human) (UniProt P0DUB6)
T1 sequence: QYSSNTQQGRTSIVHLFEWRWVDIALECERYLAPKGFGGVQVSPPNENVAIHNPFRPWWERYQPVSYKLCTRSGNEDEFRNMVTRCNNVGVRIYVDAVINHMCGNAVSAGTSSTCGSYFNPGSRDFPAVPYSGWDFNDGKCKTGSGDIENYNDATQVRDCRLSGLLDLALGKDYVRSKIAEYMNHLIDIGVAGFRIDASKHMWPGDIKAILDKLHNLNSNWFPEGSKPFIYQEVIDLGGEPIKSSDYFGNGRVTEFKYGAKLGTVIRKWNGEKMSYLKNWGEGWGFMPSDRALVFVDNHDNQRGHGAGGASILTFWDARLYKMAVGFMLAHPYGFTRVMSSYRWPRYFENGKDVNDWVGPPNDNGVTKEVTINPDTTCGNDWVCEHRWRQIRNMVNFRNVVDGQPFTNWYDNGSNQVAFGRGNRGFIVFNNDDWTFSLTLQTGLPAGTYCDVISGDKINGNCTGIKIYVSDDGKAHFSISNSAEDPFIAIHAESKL
Assay: native gel or EMSA; 40 nmol/mL synthetic histatin 5 with 40 nmol/mL salivary amylase in 50 mM NaCl, pH 7.0, 37°C, 2 h; complex recovered on a PD-10 desalting Sephadex column; 12% native PAGE; both purified

Binder: DSHAKRHHGYKRKFHEKHHSHRGY (peptide, UniProt P15516 20-43) [histatin 5]
- binding: binds
